Laboratory results: PubChem BioAssay AID504444 (National Center for Advancing Translational Sciences (NCATS), 2011)
The campaign covered roughly 360,000 compounds. About 7,500 (2.1%) were called active. The inconclusive results got no clear call from the source; some entries with a clear call stand among them for comparison. Calls follow the shape of the dose curve; as a rule, active = well fitted inhibition curve with a large enough effect; inconclusive = small, poorly fitted or top-dose-only effect, or effect the other way; inactive = flat fitted curve, though single readings scatter. A potency beside an inconclusive call is a rough fit, not a confirmed value.

test: Nrf2 qHTS screen for inhibitors; conditions: A549 ARE-Fluc reporter, luciferase luminescence, 18-24 h; series mostly up to 46 µM; also: nearly all actives have a fitted effect of over 60% in size
In short: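 Concentration-response testing used A549 ARE_Fluc cells at 5000 cells/well. Following an 18-24 h compound incubation, viability was read by fluorescence (Ex 405/Em 525) and luciferase output by luminescence.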
Potency is read from the fitted curve at half-maximal effect.

Q: Which Potency does the source give for `COC(=O)c1ccc(-c2nc(-c3ccc(OC)c(OC)c3)no2)cc1` here?
A: inconclusive: 11.6 µM [activator, partial curve, poor fit]

Q: For `O=C1CCSc2cccc3cccc(c23)N1`, which Potency is on record?
A: inconclusive: 4.61 µM [falling, single point]

Q: Which Potency does the source give for `COc1ccc(-c2ccc(SCC(=O)NCc3ccco3)nn2)cc1OC` here?
A: inactive

Q: With `Cc1cc(C)c(S(=O)(=O)N2CCCCC2CCNC(=O)C(=O)NCc2ccco2)c(C)c1` (centres undefined) as the compound, how does the Potency read?
A: inconclusive: 29.1 µM [falling, single point]

Q: Which Potency does the source give for `COc1cccc2[nH]c3c(N4CCC(C(N)=O)CC4)ncnc3c12` here?
A: inconclusive: 5.17 µM [activator, full curve, poor fit]

Q: For `Cc1ccc(/C=N\NC(=O)/C(=C\Nc2nccc(C)n2)NC(=O)c2ccccc2)cc1`, which Potency is on record?
A: inconclusive: 8.2 µM [falling, partial curve]

Q: For `O=S(=O)(NCCSc1ccc(Cl)cc1)c1ccc2c(c1)OCCO2`, which Potency is on record?
A: inactive

Q: For `CN(C(=O)c1ccc2c(c1)N(Cc1ccc(F)cc1)C(=O)c1ccccc1S2(=O)=O)C1CCCCC1`, which Potency is on record?
A: inconclusive: 29.1 µM [falling, single point]

Q: With `CCC(CC)C(=O)Nc1nnc(S(=O)(=O)N2c3ccccc3CC2C)s1` (centres undefined) as the compound, how does the Potency read?
A: inconclusive: 6.51 µM [activator, partial curve]

Q: With `CC(C)OC(=O)c1ccc(NC(=O)c2cncc(Br)c2)cc1` as the compound, how does the Potency read?
A: inconclusive: 18.4 µM [falling, partial curve, poor fit]

Q: With `CCOC(=O)C1=C(CC)Nc2ccccc2N/C1=N\S(=O)(=O)c1cc(Br)ccc1Br` as the compound, how does the Potency read?
A: inconclusive: 23.1 µM [falling, single point]

Q: For `CCOc1ccc(NC(=O)c2ccc(NC(=S)NC3CCCCC3)cc2)cc1`, which Potency is on record?
A: inactive

Q: For `COc1ccc2[nH]c(C(=O)NCc3ccc4c(c3)OCO4)cc2c1`, which Potency is on record?
A: inconclusive: 18.4 µM [falling, single point]

Q: For `O=C(NCCN1CCN(C(=O)c2ccc([N+](=O)[O-])cc2)CC1)C(=O)NCc1ccccc1`, which Potency is on record?
A: inconclusive: 18.4 µM [falling, single point]

Q: With `Cc1cc(=O)oc2c(C)c(OCC(=O)N3CCN(C(=O)C4COc5ccccc5O4)CC3)ccc12` (centres undefined) as the compound, how does the Potency read?
A: inactive

Q: For `CCOC(=O)c1ccc(NC(=O)c2nc[nH]c2C(=O)N[C@@H](Cc2ccccc2)C(=O)OC(C)(C)C)cc1`, which Potency is on record?
A: inconclusive: 23.1 µM [falling, single point]

Q: For `Cc1ccc2occ(CC(=O)Nc3ccc(Cl)c(C(F)(F)F)c3)c2c1`, which Potency is on record?
A: inconclusive: 29.1 µM [falling, single point]

Q: Which Potency does the source give for `COc1ccc(C(=O)NC(Nc2ccccc2)C(Cl)(Cl)Cl)cc1` (centres undefined) here?
A: inconclusive: 29.1 µM [falling, single point]

Q: Which Potency does the source give for `O=c1oc2ccc(Cl)cc2nc1/C=C(\O)c1cccs1` here?
A: inconclusive: 16.4 µM [activator, partial curve]

Q: With `Cc1nc(OCC(C)C)c2sc3nc4c(cc3c2n1)COC(C)(C)C4` as the compound, how does the Potency read?
A: inconclusive: 1.46 µM [activator, full curve]

Q: Which Potency does the source give for `Cc1cccc(N(Cc2cc3ccc(C)cc3[nH]c2=O)S(=O)(=O)c2ccccc2)c1` here?
A: inactive

Q: For `O=C(NC1CCCCC1)C(c1ccccc1F)N(C(=O)c1csnn1)C1CCCC1` (centres undefined), which Potency is on record?
A: inconclusive: 29.1 µM [activator, single point]

Q: For `CCOc1ccc(CCN2C(=O)C(=O)N([C@@H](CC(C)C)CN3CCC[C@@H]3CN3C(=O)C(=O)NC[C@@H]3Cc3ccccc3)C[C@@H]2CC(C)C)cc1`, which Potency is on record?
A: inconclusive: 29.1 µM [falling, single point]

Q: With `O=C(OCC#CCSc1nnc(-c2cccc3ncccc23)o1)c1ccc(F)cc1` as the compound, how does the Potency read?
A: inactive

Q: For `CCC1([N+](=O)[O-])COC(C=Cc2ccccc2)OC1` (centres undefined), which Potency is on record?
A: inconclusive: 20.6 µM [activator, partial curve]

Q: With `COc1cc2ncc3c(-c4ccccc4)nn(CC(=O)NC4CCCCC4)c3c2cc1OC` as the compound, how does the Potency read?
A: inconclusive: 29.1 µM [falling, single point]

Q: With `c1cc(-c2noc(CC3CCCCC3)n2)ccn1` as the compound, how does the Potency read?
A: inconclusive: 20.6 µM [activator, partial curve]

Q: Which Potency does the source give for `COC(=O)c1ccccc1CC1Cc2cc3c(cc2C1=O)CCC3` (centres undefined) here?
A: inconclusive: 2.06 µM [activator, full curve]

Q: For `COC(=O)c1cc(S(=O)(=O)N2CCN(c3ccc(C(C)=O)cc3)CC2)c[nH]1`, which Potency is on record?
A: inconclusive: 29.1 µM [falling, single point]

Q: Which Potency does the source give for `Clc1cccc(CSc2nnc(-c3ccccn3)n2Cc2ccco2)c1` here?
A: inconclusive: 29.1 µM [falling, single point]

Q: Which Potency does the source give for `O=[N+]([O-])c1cc([N+](=O)[O-])c2nonc2c1Nc1ccc(O)cc1` here?
A: inconclusive: 32.6 µM [falling, partial curve, poor fit]

Q: For `Oc1ccc(Br)cc1CNc1cnc2ccccc2c1`, which Potency is on record?
A: inactive

Q: Which Potency does the source give for `COc1ccccc1CNC(=O)c1ccc(-n2c(C)cc3c2CCCC3)cc1` here?
A: inactive

Q: With `CC(c1ccccc1)N(CC(=O)NC1CCCCC1)S(=O)(=O)c1cccc(C(F)(F)F)c1` (centres undefined) as the compound, how does the Potency read?
A: inconclusive: 18.4 µM [falling, single point]

Q: With `COc1ccc(-c2nc3n(c2C)Cc2ccccc2-3)cc1` as the compound, how does the Potency read?
A: inconclusive: 7.31 µM [activator, partial curve]

Q: With `COc1ccccc1N(C)S(=O)(=O)c1ccc(C(=O)Nc2ccc(N3CCOCC3)cc2)cc1` as the compound, how does the Potency read?
A: inconclusive: 20.6 µM [falling, single point]

Q: Which Potency does the source give for `N=c1c2c(ncn1Cc1ccco1)Oc1c(ccc3ccccc13)C2c1ccccc1` (centres undefined) here?
A: inactive

Q: Which Potency does the source give for `CCOC(=O)Cn1c(=O)oc2cc(S(=O)(=O)NC(C)c3ccccc3)ccc21` (centres undefined) here?
A: inconclusive: 16.4 µM [activator, partial curve, poor fit]

Q: Which Potency does the source give for `CCc1ccc(CN(C(=O)Nc2cccc(Cl)c2)c2ccccn2)cc1` here?
A: inconclusive: 2.31 µM [activator, partial curve]

Q: For `CCCCOc1ccc(OCCSc2nc3ccccc3n2CC(=O)O)cc1`, which Potency is on record?
A: inconclusive: 14.6 µM [falling, partial curve, poor fit]

Q: Which Potency does the source give for `C=CCN(CC=C)C(=S)NC(=O)c1ccc(C)c(Br)c1` here?
A: inconclusive: 20.6 µM [falling, single point]

Q: Which Potency does the source give for `COc1ccccc1N1CCN(C(=O)CCn2c(=O)[nH]c3ccccc3c2=O)CC1` here?
A: inactive

Q: Which Potency does the source give for `CCOC(=O)N1CCN(C(=O)c2ccc3c(c2)N(Cc2cccc(Cl)c2)C(=O)c2ccccc2S3=O)CC1` (centres undefined) here?
A: active: 20.6 µM

Q: Which Potency does the source give for `COc1ccc(NC(=O)Cc2ccc(C)cc2)cc1S(=O)(=O)N1CCCCC1` here?
A: inactive

Q: Which Potency does the source give for `Cc1cc(C(=O)OCC(=O)NC2CCS(=O)(=O)C2)c(C)n1-c1ccccc1` (centres undefined) here?
A: inconclusive: 23.1 µM [falling, partial curve, poor fit]

Q: For `COCc1[nH]nc2c1C(c1sccc1C)C(C#N)=C(N)O2` (centres undefined), which Potency is on record?
A: inconclusive: 16.4 µM [falling, partial curve, poor fit]

Q: Which Potency does the source give for `CCOC(=O)CSc1nc(-c2ccc3c(c2)OCO3)ccc1C#N` here?
A: inconclusive: 29.1 µM [activator, partial curve, poor fit]

Q: Which Potency does the source give for `COc1cc(NC(=O)C(=O)Nc2ccc3nc4n(c(=O)c3c2)CCCCC4)cc(OC)c1OC` here?
A: inconclusive: 16.4 µM [falling, partial curve, poor fit]

Q: For `Cc1cc(Br)ccc1NC(=O)C1C2CCC(O2)C1C(=O)O` (centres undefined), which Potency is on record?
A: inconclusive: 32.6 µM [activator, single point]

Q: For `COCCOC(=O)c1c(C)oc2ccc(OCc3ccccc3)cc12`, which Potency is on record?
A: inconclusive: 20.6 µM [falling, single point]

Q: Which Potency does the source give for `CCOc1ccc(NC(=O)C2CCN(S(=O)(=O)c3c(C)noc3/C=C/c3ccco3)CC2)cc1` here?
A: inactive

Q: With `Cc1cccc(N(C(=O)CNC(=O)c2cccs2)C(C(=O)NC2CCCC2)c2ccncc2)c1` (centres undefined) as the compound, how does the Potency read?
A: inactive

Q: For `c1ccc(N2CCN(Cc3cnc(N4CCOCC4)s3)CC2)cc1`, which Potency is on record?
A: inconclusive: 18.4 µM [falling, single point]

Q: Which Potency does the source give for `Cc1c(CC(=O)O)c(=O)oc2cc3occ(-c4ccc(F)cc4)c3cc12` here?
A: inactive

Q: For `O=C1[C@H]2[C@H](ON3CCCC[C@H]23)C(=O)N1c1ccc(Cl)cc1`, which Potency is on record?
A: inconclusive: 5.8 µM [activator, partial curve]

Q: With `Cc1cc(C)n(Cc2ccccc2)c(=O)c1S(=O)(=O)c1ccccc1` as the compound, how does the Potency read?
A: inconclusive: 23.1 µM [activator, single point]

Q: Which Potency does the source give for `CC(C)(C)OC(=O)NCCCC[C@H](NC(=O)c1nc[nH]c1C(=O)N1CCc2ccccc2C1)C(=O)OC(C)(C)C` here?
A: inconclusive: 16.4 µM [falling, partial curve, poor fit]

Q: With `CCOc1ccc(NC(=O)CCn2cccn2)cc1` as the compound, how does the Potency read?
A: inconclusive: 6.51 µM [falling, single point]

Q: For `Nc1nc2n(c1C(=O)c1ccccc1)CCC2`, which Potency is on record?
A: inconclusive: 0.291 µM [falling, full curve, poor fit]

Q: With `O=C(/C=C\Nc1ccc2c(c1)OCO2)c1ccccn1` as the compound, how does the Potency read?
A: inconclusive: 8.2 µM [falling, partial curve, poor fit]

Q: For `O=C(CSc1nc2c(c(=O)[nH]1)CCC2)Nc1ccccc1C(F)(F)F`, which Potency is on record?
A: inactive

Q: For `COc1ccc(Cn2cc(C(=O)c3ccc(C)cc3)c(=O)c3cc(OC)c(OC)cc32)cc1`, which Potency is on record?
A: inconclusive: 4.61 µM [activator, partial curve, poor fit]

Q: For `COc1cc(-c2cc(=O)c3c(O)c(OC)c(OC)c(OC)c3o2)cc(OC)c1OC`, which Potency is on record?
A: inconclusive: 20.6 µM [falling, single point]

Q: For `CCC(=O)NCCc1nc2cc(NC(=O)c3ccco3)ccc2n1C`, which Potency is on record?
A: inconclusive: 8.2 µM [activator, partial curve]
